PubChem BioAssay AID743121 – NCATS | 2013
This is a random part of about 26,000 reagents tested. 167 of all reagents (0.63%) count as active. 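Calls are per gene from RSA p-values that are not deposited; an individual active-marked siRNA can sensitise only weakly.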 The numbers tell different reagents against one gene apart.

- Test: 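Partners whose loss is lethal together with topoisomerase I blockade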 (primary screen)
- System: MDA-MB-231 cells, a human breast cancer line
- Reagents: single siRNA against human genes, 20 nM siRNA (0.8 pmol per well)
- Duration: 120 h (drug added 48 h after transfection, read 72 h later)
- Conditions: camptothecin 20 nM (about EC30) for 72 h; vehicle 0.1% DMSO in parallel plates
- Detection: 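Cell viability by ATP luminescence (CellTiter-Glo) as % of non-targeting siRNA wells, and the log2 ratio of viability without drug over viability with camptothecin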
- Reading the numbers: log2 vehicle/camptothecin viability: higher = stronger sensitisation to camptothecin; viability with camptothecin and viability without drug: higher = more viable cells
- Active means: 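Active genes have an RSA gene-level p-value below 0.001, computed from the ratios of their separate siRNAs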

no.	target	reagent	log2 vehicle/camptothecin viability	viability with camptothecin (% of control)	viability without drug (% of control)	activity call
1	SCARF2 (scavenger receptor class F member 2)	1	-0.529	82.9	57.4	inactive
2	SCARF2 (scavenger receptor class F member 2)	2	0.716	39.1	64.2	inactive
3	SCARF2 (scavenger receptor class F member 2)	3	-0.242	66.5	56.3	inactive
4	MVP (major vault protein)	1	-0.00116	93.1	93	inactive
5	MVP (major vault protein)	2	-0.287	81.6	66.9	inactive
6	MVP (major vault protein)	3	0.106	36.9	39.7	inactive
7	VDAC2 (voltage dependent anion channel 2)	1	1.12	9.14	19.9	inactive
8	VDAC2 (voltage dependent anion channel 2)	2	-0.285	118	96.9	inactive
9	VDAC2 (voltage dependent anion channel 2)	3	-0.0883	112	105	inactive
10	VDAC2 (voltage dependent anion channel 2)	4	-0.313	88.2	71	inactive
11	MYH10 (myosin heavy chain 10)	1	-0.264	83.2	69.3	inactive
12	MYH10 (myosin heavy chain 10)	2	-0.302	122	99.2	inactive
13	MYH10 (myosin heavy chain 10)	3	-0.0731	67.2	63.9	inactive
14	MYH10 (myosin heavy chain 10)	4	-0.324	105	84.2	inactive
15	PSMB6 (proteasome 20S subunit beta 6)	1	-0.544	49.6	34.1	inactive
16	PSMB6 (proteasome 20S subunit beta 6)	2	-0.308	48.3	39	inactive
17	PSMB6 (proteasome 20S subunit beta 6)	3	-0.356	50.8	39.7	inactive
18	PSMB6 (proteasome 20S subunit beta 6)	4	-0.114	52.4	48.4	inactive
19	DNAH7 (dynein axonemal heavy chain 7)	1	-0.1	65	60.6	inactive
20	DNAH7 (dynein axonemal heavy chain 7)	2	0.435	34.9	47.1	inactive
21	DNAH7 (dynein axonemal heavy chain 7)	3	-0.578	102	68.3	inactive
22	DNAH7 (dynein axonemal heavy chain 7)	4	-0.135	79.3	72.2	inactive
23	TXNRD2 (thioredoxin reductase 2)	1	-0.0507	96.6	93.3	inactive
24	TXNRD2 (thioredoxin reductase 2)	2	-0.0267	101	99.1	inactive
25	TXNRD2 (thioredoxin reductase 2)	3	-0.269	98.3	81.5	inactive
26	TXNRD2 (thioredoxin reductase 2)	4	-0.477	51.7	37.1	inactive
27	ARHGEF17 (Rho guanine nucleotide exchange factor 17)	1	-0.231	85.2	72.6	inactive
28	ARHGEF17 (Rho guanine nucleotide exchange factor 17)	2	-0.344	69.4	54.7	inactive
29	ARHGEF17 (Rho guanine nucleotide exchange factor 17)	3	-0.599	33	21.8	inactive
30	KISS1R (KISS1 receptor)	1	-0.217	55.6	47.8	inactive
31	KISS1R (KISS1 receptor)	2	-0.193	102	89.6	inactive
32	KISS1R (KISS1 receptor)	3	-0.819	91.7	52	inactive
33	KISS1R (KISS1 receptor)	4	-0.441	84.2	62	inactive
34	AURKC (aurora kinase C)	1	0.00258	96.3	96.4	inactive
35	AURKC (aurora kinase C)	2	-0.0498	67.8	65.5	inactive
36	AURKC (aurora kinase C)	3	-0.342	61.2	48.3	inactive
37	AURKC (aurora kinase C)	4	-0.214	81.6	70.4	inactive
38	IL1R2 (interleukin 1 receptor type 2)	1	0.224	86.9	102	inactive
39	IL1R2 (interleukin 1 receptor type 2)	2	-0.75	51.1	30.4	inactive
40	IL1R2 (interleukin 1 receptor type 2)	3	0.172	60.4	68	inactive
41	IL1R2 (interleukin 1 receptor type 2)	4	-0.105	109	101	inactive
42	CYBA (cytochrome b-245 alpha chain)	1	-0.368	41.3	32	inactive
43	CYBA (cytochrome b-245 alpha chain)	2	-0.395	73.4	55.8	inactive
44	CYBA (cytochrome b-245 alpha chain)	3	-0.354	65	50.9	inactive
45	CYBA (cytochrome b-245 alpha chain)	4	-0.434	87.6	64.8	inactive
46	YME1L1 (YME1 like 1 ATPase)	1	-0.521	121	84.3	inactive
47	YME1L1 (YME1 like 1 ATPase)	2	-0.429	96	71.3	inactive
48	YME1L1 (YME1 like 1 ATPase)	3	-0.0187	104	102	inactive
49	YME1L1 (YME1 like 1 ATPase)	4	-0.127	70	64.1	inactive
50	MYL6 (myosin light chain 6)	1	-0.141	82.4	74.8	inactive
51	MYL6 (myosin light chain 6)	2	-0.271	91.4	75.7	inactive
52	MYL6 (myosin light chain 6)	3	-0.102	25.5	23.7	inactive
53	DAPK1 (death associated protein kinase 1)	1	-0.414	71.6	53.7	inactive
54	DAPK1 (death associated protein kinase 1)	2	-0.128	61.5	56.3	inactive
55	DAPK1 (death associated protein kinase 1)	3	-0.424	57.2	42.6	inactive
56	DAPK1 (death associated protein kinase 1)	4	0.0568	89.7	93.4	inactive
57	GPA33 (glycoprotein A33)	1	-0.538	85.9	59.2	inactive
58	GPA33 (glycoprotein A33)	2	-0.283	72	59.1	inactive
59	GPA33 (glycoprotein A33)	3	-0.0349	88.5	86.3	inactive
60	GPA33 (glycoprotein A33)	4	-0.349	56.1	44	inactive
61	INSRR (insulin receptor related receptor)	1	0.321	68.5	85.6	inactive
62	INSRR (insulin receptor related receptor)	2	-0.68	83.1	51.8	inactive
63	INSRR (insulin receptor related receptor)	3	-0.237	54.6	46.3	inactive
64	INSRR (insulin receptor related receptor)	4	-0.215	87	74.9	inactive
65	SLC7A5	1	0.197	60.4	69.3	inactive
66	SLC7A5	2	-0.279	98.2	80.9	inactive
67	SLC7A5	3	-0.435	110	81	inactive
68	SLC7A5	4	-0.324	108	86.2	inactive
69	SLC7A5	5	-0.202	86	74.8	inactive
70	DAP3 (death associated protein 3)	1	-0.217	81.2	69.8	inactive
71	DAP3 (death associated protein 3)	2	-0.12	56.6	52	inactive
72	DAP3 (death associated protein 3)	3	-0.326	67.2	53.6	inactive
73	DAP3 (death associated protein 3)	4	-0.117	55.7	51.3	inactive
74	ADGRL3 (adhesion G protein-coupled receptor L3)	1	-0.379	69.1	53.1	inactive
75	ADGRL3 (adhesion G protein-coupled receptor L3)	2	-0.104	117	109	inactive
76	ADGRL3 (adhesion G protein-coupled receptor L3)	3	-0.307	88.3	71.4	inactive
77	ADGRL3 (adhesion G protein-coupled receptor L3)	4	0.318	71.2	88.8	inactive
78	TRAF2 (TNF receptor associated factor 2)	1	-0.103	42.2	39.3	inactive
79	TRAF2 (TNF receptor associated factor 2)	2	0.0199	88	89.2	inactive
80	TRAF2 (TNF receptor associated factor 2)	3	0.976	33.9	66.6	inactive
81	RPL4 (ribosomal protein L4)	1	-0.455	42.5	31	inactive
82	RPL4 (ribosomal protein L4)	2	-0.428	45.8	34	inactive
83	RPL4 (ribosomal protein L4)	3	-0.209	107	92.9	inactive
84	RPL4 (ribosomal protein L4)	4	-0.8	31.9	18.3	inactive
85	MSLN (mesothelin)	1	-0.506	63	44.3	inactive
86	MSLN (mesothelin)	2	0.263	50.8	61	inactive
87	MSLN (mesothelin)	3	0.414	39.6	52.8	inactive
88	MSLN (mesothelin)	4	-0.261	21.1	17.6	inactive

8 consecutive records from above, for reference:
no.	target	reagent	log2 vehicle/camptothecin viability	viability with camptothecin (% of control)	viability without drug (% of control)	activity call
12	MYH10 (myosin heavy chain 10)	2	-0.302	122	99.2	inactive
13	MYH10 (myosin heavy chain 10)	3	-0.0731	67.2	63.9	inactive
14	MYH10 (myosin heavy chain 10)	4	-0.324	105	84.2	inactive
15	PSMB6 (proteasome 20S subunit beta 6)	1	-0.544	49.6	34.1	inactive
16	PSMB6 (proteasome 20S subunit beta 6)	2	-0.308	48.3	39	inactive
17	PSMB6 (proteasome 20S subunit beta 6)	3	-0.356	50.8	39.7	inactive
18	PSMB6 (proteasome 20S subunit beta 6)	4	-0.114	52.4	48.4	inactive
19	DNAH7 (dynein axonemal heavy chain 7)	1	-0.1	65	60.6	inactive
